Test results from article PMC12830804.
Like-named read-outs stand apart in the source and are kept apart here. Results are given in words; binding and its absence hold for the method and conditions named. Binding seen in cells or lysates may run through a third protein. Some binding calls cover weakened binding; strength is not graded here.

Sequences of proteins named here, by UniProt entry; tags and fusion partners are left off.
UniProt O00308: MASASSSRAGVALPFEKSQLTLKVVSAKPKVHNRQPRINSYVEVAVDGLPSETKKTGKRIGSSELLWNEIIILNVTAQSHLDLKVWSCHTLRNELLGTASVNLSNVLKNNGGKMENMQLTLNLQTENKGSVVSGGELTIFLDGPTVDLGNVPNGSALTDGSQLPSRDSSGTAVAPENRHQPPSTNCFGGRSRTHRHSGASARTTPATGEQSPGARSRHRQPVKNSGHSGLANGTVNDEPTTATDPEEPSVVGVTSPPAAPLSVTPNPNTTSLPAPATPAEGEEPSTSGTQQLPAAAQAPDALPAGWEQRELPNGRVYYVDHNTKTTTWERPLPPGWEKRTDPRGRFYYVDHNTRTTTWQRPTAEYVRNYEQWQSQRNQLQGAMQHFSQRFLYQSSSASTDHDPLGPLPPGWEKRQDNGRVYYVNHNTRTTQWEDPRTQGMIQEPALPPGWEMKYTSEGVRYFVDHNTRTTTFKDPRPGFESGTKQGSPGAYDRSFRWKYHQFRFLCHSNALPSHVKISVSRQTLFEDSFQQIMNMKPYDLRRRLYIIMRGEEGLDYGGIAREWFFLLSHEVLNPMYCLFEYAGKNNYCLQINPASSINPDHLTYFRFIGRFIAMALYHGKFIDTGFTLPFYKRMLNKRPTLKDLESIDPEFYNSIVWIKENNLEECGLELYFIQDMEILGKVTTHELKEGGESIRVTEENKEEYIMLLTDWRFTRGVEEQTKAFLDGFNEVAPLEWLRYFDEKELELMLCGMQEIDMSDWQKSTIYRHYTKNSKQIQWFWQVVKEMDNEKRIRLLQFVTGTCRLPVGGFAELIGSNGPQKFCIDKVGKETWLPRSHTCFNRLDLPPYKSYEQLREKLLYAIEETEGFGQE
UniProt P38936: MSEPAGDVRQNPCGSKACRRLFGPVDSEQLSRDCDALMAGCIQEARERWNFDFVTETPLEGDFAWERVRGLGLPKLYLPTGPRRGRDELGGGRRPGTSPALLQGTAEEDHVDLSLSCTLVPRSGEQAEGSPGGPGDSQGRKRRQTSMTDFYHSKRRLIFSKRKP

Assays:
[1] = target: WWP2 (WW domain-containing E3 ubiquitin protein ligase 2) (human (endogenous in HuH-7)) (UniProt O00308); assay: co-IP; endogenous proteins of HuH-7 cells; NP-40 lysis buffer; target-specific primary antibody (1:100) or control IgG overnight at 4 °C, Protein A/G magnetic beads, three washes with NP-40 buffer; immunoblot
[2] = target: WWP2 (WW domain-containing E3 ubiquitin protein ligase 2) (human (endogenous in HuH-7)) (UniProt O00308); assay: as above; remark: listed apart in the source

Row | binding [1] | binding [2] | Molecule
1 | binds | – | p21 (from UniProt P38936 1-164)
2 | – | binds | CMTM6 (protein, UniProt Q9NX76 1-183) MENGAVYSPTTEEDPGPARGPRSGLAAYFFMGRLPLLRRVLKGLQLLLSLLAFICEEVVSQCTLCGGLYFFEFVSCSAFLLSLLILIVYCTPFYERVDTTKVKSSDFYITLGTGCVFLLASIIFVSTHDRTSAEIAAIVFGFIASFMFLLDFITMLYEKRQESQLRKPENTTRAEALTEPLNA
